Results deposited as PubChem BioAssay AID1671195 (Yale University, 2021).

- Test: 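Knockdowns that increase or decrease uptake of fluorescent LDL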 (primary screen)
- Cells: human Huh7 hepatoma cells
- Reagent: siRNA pool against human genes, 18 nM
- Timing: about 2 to 2.5 days of knockdown, then 8 h LDL uptake
- Treatment: DiI-labelled LDL at 30 µg/ml for 8 h, in lipoprotein-deficient serum medium
- Measurement: 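Per-cell DiI-LDL intensity by automated imaging; well means scaled to the plate median and given as a robust z-score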
- Reading the numbers: robust z-score: higher = more LDL uptake after knockdown
- Active means: 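a gene counts as active if at least two replicate z-scores exceed ±2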
This is a random part of about 22,000 reagents. Over the whole deposit, about 1,510 (6.9%) got an active call. 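Active includes knockdowns raising or lowering LDL uptake; positive z-scores mean more uptake, negative mean less.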 Reagent sequences are not shown.

{"gene":"KPNA1 (GeneID 3836)","robust z-score, replicate 1":-1.23,"robust z-score, replicate 2":-1.27,"robust z-score, replicate 3":-1.06,"Outcome":"inactive"}
{"gene":"UCN3 (GeneID 114131)","robust z-score, replicate 1":-0.541,"robust z-score, replicate 2":-0.44,"robust z-score, replicate 3":-0.465,"Outcome":"inactive"}
{"gene":"MGAT4B (GeneID 11282)","robust z-score, replicate 1":-0.0332,"robust z-score, replicate 2":-0.722,"robust z-score, replicate 3":-0.165,"Outcome":"inactive"}
{"gene":"MCUB (GeneID 55013)","robust z-score, replicate 1":0.404,"robust z-score, replicate 2":1.85,"robust z-score, replicate 3":-1.14,"Outcome":"inactive"}
{"gene":"PRSS48 (GeneID 345062)","robust z-score, replicate 1":-1.1,"robust z-score, replicate 2":-0.983,"robust z-score, replicate 3":-0.98,"Outcome":"inactive"}
{"gene":"LOC390244 (retired record) (GeneID 390244)","robust z-score, replicate 1":-1.22,"robust z-score, replicate 2":-1.08,"robust z-score, replicate 3":-0.719,"Outcome":"inactive"}
{"gene":"RNF44 (GeneID 22838)","robust z-score, replicate 1":-0.116,"robust z-score, replicate 2":-1.03,"robust z-score, replicate 3":-0.784,"Outcome":"inactive"}
{"gene":"MYCT1 (GeneID 80177)","robust z-score, replicate 1":0.463,"robust z-score, replicate 2":0.513,"robust z-score, replicate 3":0.353,"Outcome":"inactive"}
{"gene":"ZC3H14 (GeneID 79882)","robust z-score, replicate 1":0.959,"robust z-score, replicate 2":0.474,"robust z-score, replicate 3":1.54,"Outcome":"inactive"}
{"gene":"SHISA3 (GeneID 152573)","robust z-score, replicate 1":0.67,"robust z-score, replicate 2":-0.313,"robust z-score, replicate 3":0.41,"Outcome":"inactive"}
{"gene":"GIP (GeneID 2695)","robust z-score, replicate 1":-0.836,"robust z-score, replicate 2":-0.293,"robust z-score, replicate 3":-0.00356,"Outcome":"inactive"}
{"gene":"NHLH2 (GeneID 4808)","robust z-score, replicate 1":0.647,"robust z-score, replicate 2":-0.0524,"robust z-score, replicate 3":0.201,"Outcome":"inactive"}
